Results published in PubChem BioAssay AID493014 (National Center for Advancing Translational Sciences (NCATS), 2011).
Screen size: about 340,000 compounds; about 170 (0.05%) were called active. This list was built around the results that the source calls inconclusive (neither active nor inactive); the mix of calls is not that of the screen. Calls follow the shape of the dose curve; as a rule, active = well fitted inhibition curve with a large enough effect in the signal ratio, with a control signal flat (not every such curve was filed as active); inconclusive = small, poorly fitted or top-dose-only effect, or effect the other way, or a change in a side signal; inactive = flat fitted curve, though single readings scatter; the % refers to the signal ratio. A potency beside an inconclusive call is a rough fit, not a confirmed value.
Potency is read from the fitted curve at half-maximal effect.

Test: qHTS Assay to Find Inhibitors of Chronic Active B-Cell Receptor Signaling;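 as to activity change, negative = inhibition: plate controls were basal doxycycline-induced cells for no effect and cells given 10 µM MG132 for full effect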
Settings: ABC-DLBCL IkBa-CBG/CBR reporter, luminescence ratio (green luciferase fused to IkBa over red control in TMD8 lymphoma cells), 4 h; activity change, negative = inhibition: at 46.1 µM (top of the series) unless noted
Method in brief: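 TMD8 human ABC-DLBCL cells with doxycycline-inducible IκBα–green luciferase fusion and unfused red luciferase, in 0.5% FBS medium; compounds up to 46 uM, 4 h at 37C. Green/red luminescence ratio, filter-overlap corrected, fitted to concentration-response curves.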
In the case of `CCn1c(C(=O)O)c(CC(=O)Nc2ccc(Br)cc2C)c2ccccc21`, the activity change, negative = inhibition is reported as inconclusive: -2.21%.
With `Cc1ccc(NC(=O)c2cccs2)cc1NC(=O)c1cccnc1` the activity change, negative = inhibition was inconclusive: -4.18%.
For `Cc1nn(-c2ccccc2)c2sc(C(=O)N3CCc4ccccc4C3)cc12`, the activity change, negative = inhibition was inconclusive: 5.6%.
For `C/C(CC(=O)Nc1ccc2c(c1)OCCO2)=N\NC(=O)c1ccccn1`, the Potency was inconclusive: 35.5 µM [rising, single point].
With `O=C(Nc1cccc2c1[nH]c1ccccc12)C(F)(F)F` the activity change, negative = inhibition was inconclusive: 7.17%.
With `CCc1nnc(NC(=O)CCC(=O)N2CCN(Cc3ccc(C)cc3C)CC2)s1` the activity change, negative = inhibition was “inactive”.
With `CCOC(=O)c1ccc2[nH]c3c(c2c1)CCCC3` the activity change, negative = inhibition was inconclusive: 14.4%.
In the case of `Cc1ccc(S(=O)(=O)Nc2cccc(-c3ccc4nnc(C)n4n3)c2)s1`, the Potency is reported as inconclusive: 0.282 µM [falling, full curve, poor fit].
In the case of `C=CCNC(=S)N1CCN(c2ccccc2Cl)CC1`, the activity change, negative = inhibition is reported as inconclusive: -0.778%.
In the case of `O=C(N/N=C/c1ccsc1)c1ccc2ccccc2n1`, the activity change, negative = inhibition is reported as inconclusive: -1.3%.
In the case of `COCCCNc1nc(-c2ccc(Cl)cc2)nc2ccccc12`, the activity change, negative = inhibition is reported as inconclusive: -47%.
In the case of `COc1ccc(C(=O)Nc2cc(OC)cc3cccnc23)cc1`, the activity change, negative = inhibition is reported as inconclusive: -9.77%.
With `Cc1ccc(CSc2nc3c(c(SCC(=O)O)n2)CCCC3)cc1` the Potency was inconclusive: 35.5 µM [falling, single point].
For `NC(=O)CSC1=N/C(=C\c2ccco2)C(=O)N1c1ccc(OC(F)F)cc1`, the activity change, negative = inhibition was “inactive”.
For `COc1ccc(-n2c(Cc3cccn3C)nnc2SCC(=O)Nc2ccccc2)cc1`, the Potency was inconclusive: 6.51 µM [rising, single point].
In the case of `COc1cc(O)oc1C=Nc1ccc(C(=O)O)cc1`, the Potency is reported as inconclusive: 25.1 µM [falling, single point].
In the case of `CCCN(C(=O)C1CC(=O)N(c2ccccc2C(C)CC)C1)C1CCS(=O)(=O)C1` (stereo not drawn), the activity change, negative = inhibition is reported as “inactive”.
With `CCOC(=O)C1CCCN(Cc2nc(N)nc(Nc3ccc(C)cc3)n2)C1` (stereo not drawn) the activity change, negative = inhibition was inconclusive: 11.5%.
With `COc1ccccc1N1CCN(CCN2C(=O)C3CCCCN3C2=O)CC1` (stereo not drawn) the activity change, negative = inhibition was inconclusive: 7.05%.
With `CCn1c(SCC(=O)Nc2nnc(C)s2)nnc1C(C)NC(=O)c1ccccc1` (stereo not drawn) the activity change, negative = inhibition was inconclusive: 8.05%.
For `CCN(CC)CCSc1nnc2c3ccccc3n(Cc3ccccc3)c2n1`, the activity change, negative = inhibition was inconclusive: 20.9%.
With `N/C(=N\OC(=O)Cc1ccc([N+](=O)[O-])cc1)c1ccccn1` the Potency was inconclusive: 20 µM [falling, partial curve].
In the case of `CC(Sc1nc2ccccc2o1)C(=O)O` (stereo not drawn), the Potency is reported as inconclusive: 3.16 µM [falling, partial curve, poor fit].
